Test: general procedure: Fmoc solid-phase peptide synthesis; Fmoc-Rink resin (4-(2',4'-dimethoxyphenyl-Fmoc-aminomethyl)-phenoxypolystyrene resin, Bachem D-2080; 0.47 mmol/g); HOBt (HOAt with DIPEA for Fmoc-Glu(2-phenylisopropyloxy)-OH)
Conditions: whole synthesis, hydrochloride

For “16-(tetrazol-5-yl)hexadecanoyl-Gly-Thr-GIn-His-Ser-Nle-c[Glu-Hyp-D-Phe-Arg-Trp-Lys]-NH2”, the “final HPLC purity” value (UV 214 nm, scale of the general procedure 0.10 mmol) was 100%, the isolated mass (scale 0.10 mmol) was 27.8 mg and the isolated yield (scale 0.10 mmol) was 16%.
